Laboratory results: PubChem BioAssay AID504774 (Drosophila RNAi Screening Center, 2011)
Aim: 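Genes required for cells to withstand methyl methanesulphonate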 (primary screen). Cells: Drosophila Kc167 cells. Reagents: long dsRNA against Drosophila genes, about 0.25 µg dsRNA per well. Time to read-out: about 6 days: 3 days knock-down, then 3 days with or without MMS. Treatment: methyl methanesulphonate 0.004% (w/v) for 3 days after knock-down. Detection: 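ATP-dependent luminescence as a measure of live cells in MMS-exposed wells, quantile normalised within each plate, with replicate values also given as a mean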. Scale: mean viability with MMS: higher = more surviving cells after MMS.
The screen tested about 23,000 reagents; below is an unselected part of those that have a named target and a result. 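Values are quantile-normalised luminescence on an arbitrary scale; higher means more cells surviving MMS.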 The numbers tell different reagents against one gene apart. A plus sign joins genes that one reagent is predicted to hit. Further read-outs or replicates are left out here.

CG4218 | mean viability with MMS: 3.58e6
CG15800 | mean viability with MMS: 3.47e6
Ufsp2 | mean viability with MMS: 3.68e6
CG18735 | mean viability with MMS: 3.60e6
CG8673 | mean viability with MMS: 3.71e6
pix | mean viability with MMS: 3.06e6
CG7191 | mean viability with MMS: 3.48e6
Nup35 | mean viability with MMS: 3.52e6
pre-mod(mdg4)-Z + mod(mdg4) + pre-mod(mdg4)-T #1 | mean viability with MMS: 3.65e6
pre-mod(mdg4)-Z + mod(mdg4) + pre-mod(mdg4)-T #2 | mean viability with MMS: 3.46e6
CG31835 + CG42585 | mean viability with MMS: 3.58e6
Mipp1 | mean viability with MMS: 3.45e6
RSG7 #1 | mean viability with MMS: 3.62e6
RSG7 #2 | mean viability with MMS: 3.50e6

A few values from the entries so far.
Mipp1, mean viability with MMS: 3.45e6
Value for CG18735 under “mean viability with MMS”: 3.60e6
